The results in this text go back to publication PMC2868895.

Results are given in words; binding and its absence hold for the method and conditions named. Binding seen in cells or lysates may run through a third protein. A result given as binding can be weak or reduced; the word gives no strength.

The target in this experiment is T1, p107 (human (endogenous in Molt 4)) (UniProt P28749).
T1 sequence: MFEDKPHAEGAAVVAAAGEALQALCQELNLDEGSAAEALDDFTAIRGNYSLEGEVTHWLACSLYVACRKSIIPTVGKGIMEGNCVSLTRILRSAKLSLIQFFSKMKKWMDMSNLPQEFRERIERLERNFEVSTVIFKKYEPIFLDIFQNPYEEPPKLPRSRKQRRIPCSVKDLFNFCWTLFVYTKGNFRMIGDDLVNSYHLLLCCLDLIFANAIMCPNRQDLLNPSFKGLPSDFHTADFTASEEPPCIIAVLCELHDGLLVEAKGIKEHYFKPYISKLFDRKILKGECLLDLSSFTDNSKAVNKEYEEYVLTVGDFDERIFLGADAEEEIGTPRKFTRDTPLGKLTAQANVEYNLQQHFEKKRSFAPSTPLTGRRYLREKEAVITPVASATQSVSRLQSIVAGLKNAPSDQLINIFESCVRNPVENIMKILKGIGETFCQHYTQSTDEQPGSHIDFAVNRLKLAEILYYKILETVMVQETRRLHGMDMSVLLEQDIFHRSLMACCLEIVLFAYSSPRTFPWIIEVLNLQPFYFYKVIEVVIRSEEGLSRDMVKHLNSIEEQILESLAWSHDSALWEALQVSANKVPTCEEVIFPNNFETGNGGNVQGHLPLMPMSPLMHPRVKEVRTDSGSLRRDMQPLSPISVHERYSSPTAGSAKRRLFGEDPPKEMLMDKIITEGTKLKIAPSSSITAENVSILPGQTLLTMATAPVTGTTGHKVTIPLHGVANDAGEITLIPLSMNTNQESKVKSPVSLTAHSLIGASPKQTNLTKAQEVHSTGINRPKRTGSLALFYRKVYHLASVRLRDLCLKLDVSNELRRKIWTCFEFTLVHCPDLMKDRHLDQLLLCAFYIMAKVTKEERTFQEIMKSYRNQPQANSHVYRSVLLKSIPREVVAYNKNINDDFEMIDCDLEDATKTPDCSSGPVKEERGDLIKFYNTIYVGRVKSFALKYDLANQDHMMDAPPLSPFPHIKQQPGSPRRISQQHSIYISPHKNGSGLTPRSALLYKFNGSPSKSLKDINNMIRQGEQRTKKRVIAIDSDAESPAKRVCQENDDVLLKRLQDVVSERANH
In words: co-IP; lysates of Rat2, MEF or 3T3 cells expressing all five JCV early proteins or tAg only, incubated overnight with Molt 4 extracts; IP with anti-p107 antibody, Western blot with a cocktail of anti-T monoclonal antibodies. (In general: In western blotting, separated proteins are transferred to a membrane and probed.)
Regarding JC virus T'135 protein, the binding result is “binds”.
With JC virus T'165 protein, the binding result is recorded as “binds weakly”.
The same measure for “JC virus small tumor antigen mutant P99A”: “binds”; for JC virus T'136 protein: “binds”.
Regarding “JC virus small tumor antigen mutant C157A”, the binding result is “binds”.
